According to patent US20050196744A1 (priority 2004, published 2005):
Some results were stated once for a whole list of compounds, not compound by compound. At least one compound was matched to its structure with a doubt left.

Target: T1, D79E DAT (Rattus norvegicus, UniProt P23977, D79E)
T1 construct: expressed in transfected cells; host or cells: CHO-K1, stably transfected; intact attached monolayers
T1 sequence (P23977 1-619 D79E): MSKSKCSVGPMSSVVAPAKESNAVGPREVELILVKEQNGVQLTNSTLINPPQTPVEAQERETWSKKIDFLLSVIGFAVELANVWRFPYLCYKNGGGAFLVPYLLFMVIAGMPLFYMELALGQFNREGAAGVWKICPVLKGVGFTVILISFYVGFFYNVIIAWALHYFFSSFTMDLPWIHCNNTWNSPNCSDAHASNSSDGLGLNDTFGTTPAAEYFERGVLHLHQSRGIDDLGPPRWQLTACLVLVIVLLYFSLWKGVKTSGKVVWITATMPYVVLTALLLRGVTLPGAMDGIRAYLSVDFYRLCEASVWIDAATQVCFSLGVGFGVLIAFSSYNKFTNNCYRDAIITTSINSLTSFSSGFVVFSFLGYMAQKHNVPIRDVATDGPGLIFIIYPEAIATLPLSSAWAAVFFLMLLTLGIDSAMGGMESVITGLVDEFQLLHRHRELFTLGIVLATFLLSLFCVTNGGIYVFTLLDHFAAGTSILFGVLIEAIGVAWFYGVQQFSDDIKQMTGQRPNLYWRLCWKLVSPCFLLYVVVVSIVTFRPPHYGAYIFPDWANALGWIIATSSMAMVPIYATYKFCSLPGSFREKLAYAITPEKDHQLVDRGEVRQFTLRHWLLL
Test: [3H]-WIN 35,428 binding / displacement at CHO cells stably expressing D79E DAT
Details: comparison of Ki values
Procedure: Ligand binding assays. […] Nonradioactive competitor concentrations were as indicated above for uptake inhibition. […] Membranes were aspirated with a Brandel harvester onto GF/B glass-fiber filter paper, washed with 3×5 ml cold binding buffer, and the filters measured for radioactivity via scintillation counting. For all binding assays, data were analyzed with the GraphPad Prism 2.0 software to obtain Kd, Ki and Bmax values.

| Structure (SMILES) | loss of binding affinity ([3H]-WIN 35,428 displacement) caused by the D79E mutation (D79E vs WT DAT) |
| --- | --- |
| NCCc1cccc(O)c1 [m-Tyramine] | over 5 fold |
| NCCc1ccc(O)cc1 [p-Tyramine] | over 5 fold |
